Experimental data from publication PMC7321169, “N-Alkylaminoferrocene-Based Prodrugs Targeting Mitochondria of Cancer Cells” (Molecules, 2020).

Tested on: BL-2 cells
Experiment: Prodrug uptake by BL-2 cells, intracellular boron by curcumin assay
Assay type: cell-based
Conditions: prodrug 1 μM, 1 h, cells only 0.54

SMILES | ∆A (mean), baseline corrected absorbance at 550 nm proportional to boron
CC1(C)OB(c2ccc(COC(=O)N(Cc3cccc(CN4CCCCC4)c3)[c-]3cccc3)cc2)OC1(C)C.[Fe+2].c1cc[cH-]c1 [prodrug 8] | 1.90
COC(=O)CCCCCn1cc(CN(C(=O)OCc2ccc(B3OC(C)(C)C(C)(C)O3)cc2)[c-]2cccc2)nn1.[Fe+2].c1cc[cH-]c1 [prodrug 9] | 0.98
